Consider one molecule from PMC6736360, “P-Glycoprotein–Mediated Efflux Reduces the In Vivo Efficacy of a Therapeutic Targeting the Gastrointestinal Parasite Cryptosporidium” (The Journal of Infectious Diseases, 2019).

A short description of the series: Caco-2 trans-well apparent permeability assay. Format: in vitro ADME. The conditions noted are these: human, pH 7.4. On the procedure: To initially characterize the permeability of BKIs 1294, 1369, and 1318, the software MedChem Designer (Simulations +, Lancaster, CA) was used to predict the Peff. The in vitro apparent permeability (Papp) was carried out by Absorption Systems LP (Exton, PA) with a Caco-2 trans-well assay. Caco-2 cells (clone C2BBe1) were obtained from American Type Culture Collection (Manassas, VA) were grown to confluence on collagen-coated, microporous membranes in 12-well assay plates. The permeability assay buffer was Hanks’ balanced salt solution (HBSS) containing 10 mM HEPES and 15 mM glucose at a pH of 7.4. The buffer in the receiver chamber also contained 1% bovine serum albumin. […] The Papp was calculated with equation (1) and the percent recovery with equation (2). […]
where dCr/dt is the slope of the cumulative concentration in the receiver compartment versus time in µM s^-1; Vr is the volume of the receiver compartment in cm^3; Vd is the volume of the donor compartment in cm^3; A is the area of the insert (1.13 cm^2 for 12-well); CA is the average of the nominal dosing concentration and the measured 120 minute donor concentration in µM; CN is the nominal concentration of the dosing solution in µM; Cr^final is the cumulative receiver concentration in µM at the end of the incubation period; Cd^final is the concentration of the donor in µM at the end of the incubation period. […]
(In general: Caco-2 cells form a polarised layer with tight junctions and transporters.)

`CC(C)NCC(O)COc1ccc(CC(N)=O)cc1` (centres unmarked) [Atenolol, reference compound]: under “Caco-2 assays, read-out: Observed Papp of controls”, the Papp at 120 min is no more than 0.05 ×10⁻⁶ cm/s. Moreover, the Papp A→B at 120 min, 5 µM (Caco-2, 5 µM, 120 minutes) amounted to 0.21 ×10⁻⁶ cm/s.

One may read the Papp as a coefficient for how fast a substance crosses the barrier. By Papp A→B is commonly meant how fast a substance crosses the layer from the apical side.
